Laboratory results from patent US10472635B2, “Methods of treating brain edema” (priority 2015, dated 2019).
For at least one compound, name, drawing or mass did not settle the structure.

Key:
[1] = system: rat hippocampal slices; assay: LDH release cell death assay in hippocampal slices; assay type: cell-based; details: 15 min application, LDH after 90 min; veratridine 50 μM; NMDA 100 μM in 0 mM Ca2+, 2 mM EGTA; CNQX, picrotoxin, Cd2+ present
[2] = system: neuronal [Cl^−]i in brain slices; assay: Neuronal [Cl-]i by two-photon FLIM of MQAE; assay type: cell-based, rat; details: veratridine application, picrotoxin 100 μM present
[3] = system: neuronal [Na^+]i in brain slices; assay: Neuronal [Na+]i by CoroNa Green fluorescence / two-photon FLIM; assay type: cell-based, rat; details: pressure ejection; Cd2+, CNQX, picrotoxin present; d-APV with veratridine, TTX with NMDA
[4] = system: hippocampal/cortical brain slices; assay: Brain slice tissue volume imaged at low magnification; assay type: cell-based, rat; details: veratridine application
[5] = system: cortical neurons in brain slices; assay: Neuronal swelling imaging assay in brain slices (cross sectional area of CoroNa-stained soma, two-photon); assay type: cell-based, rat; details: pressure ejection; Cd2+, CNQX, picrotoxin present; d-APV with veratridine, TTX with NMDA

COc1ccc(C(=O)O[C@H]2CC[C@@]3(C)[C@@H]4CC[C@H]5[C@]6(O)C[C@H](O)[C@@]7(O)[C@@H](CN8C[C@@H](C)CC[C@H]8[C@@]7(C)O)[C@]6(O)C[C@@]53O[C@]24O)cc1OC [veratridine]
LDH release (cell death) on application [1]: rapid and significant increase | change in neuronal [Cl-]i (MQAE fluorescence lifetime) [2]: increase in [Cl^−]i | change in neuronal [Na+]i on application [3]: significant increase | change in brain slice tissue volume on application [4]: dramatic swelling | change in neuronal cell volume on application [5]: increase in neuronal cell volume
